Experimental data: patent US9125388B2, “Biological control” (Isis Innovation Limited, priority 1999, dated 2015)
At least one structure is not confirmed: it was looked up by name or label, or the drawing left a doubt.

Test system: bnk-tTa × tRe-Ras64B^V12
Assay: Tc-repressible lethality using an embryo-specific promoter (Table 2), adult progeny by sex
Type: in vivo, Drosophila melanogaster
Conditions: parental or zygotic exposure to Tc

CN(C)[C@@H]1C(O)=C(C(N)=O)C(=O)[C@@]2(O)C(O)=C3C(=O)c4c(O)cccc4[C@@](C)(O)[C@H]3C[C@@H]12 [Tetracycline, tetracycline]
embryo survival depending on Tc exposure: survived to adulthood irrespective of parental or zygotic exposure to Tc
